Some of these results come from one statement about several compounds together.
Assays:
Assay type in all cases: in vivo
Myzus persicae = experiment: Test for Control Efficacy on Myzus persicae; settings: 500 ppm, foliar application to potted Chinese cabbage plants, 6 days after the foliar application
Laodelphax striatellus = experiment: Insecticidal Test on Laodelphax striatellus; settings: 500 ppm, rice plant seedlings dipped for 30 seconds, 3rd-instar larvae, 8 days after the inoculation
From the text: Insecticidal Test on Laodelphax striatellus
The condensed heterocyclic compounds represented by the general formula (1) of the present invention or salts thereof were separately dispersed in water and diluted to 500 ppm. Rice plant seedlings (variety: Nihonbare) were dipped in the agrochemical dispersions for 30 seconds. After air-dried, each seedling was put into a separate glass test tube and inoculated with ten 3rd-instar larvae of Laodelphax striatellus, and then the glass test tubes were capped with cotton plugs. At 8 days after the inoculation, the numbers of surviving larvae and dead larvae were counted, the corrected mortality rate was calculated according to the formula shown below, and the insecticidal efficacy was evaluated according to the criteria shown below. Corrected mortality rate(%)=100×(Survival rate in a non-treatment plot−Survival rate in a treatment plot)/Survival rate in a non-treatment plot [Math. 2] Corrected Mortality Rate A: the corrected mortality rate is 100%. B: the corrected mortality rate is 90 to 99%. C: the corrected mortality rate is 80 to 89%. D: the corrected mortality rate is 50 to 79%.

Plutella xylostella = experiment: Insecticidal Test on Plutella xylostella; settings: 500 ppm, Chinese cabbage seedlings with laid eggs dipped for about 30 seconds, 25° C., 6 days after the dip treatment
From the text: Insecticidal Test on Plutella xylostella
Adults of Plutella xylostella were released onto Chinese cabbage seedlings and allowed to lay eggs thereon. At 2 days after the release of the adults, the Chinese cabbage seedlings with laid eggs were dipped for about 30 seconds in agrochemical dispersions diluted to 500 ppm, each of which contained a different condensed heterocyclic compound represented by the general formula (1) of the present invention as an active ingredient. After air-dried, the seedlings were kept in a thermostatic chamber at 25° C. At 6 days after the dip treatment, the number of hatched larvae per plot was counted, the mortality rate was calculated according to the formula shown below, and the insecticidal efficacy was evaluated according to the criteria of Test Example 2. This test was conducted in triplicate using 10 adults of Plutella xylostella per plot. Corrected mortality rate(%)=100×(Number of hatched larvae in a non-treatment plot−Number of hatched larvae in a treatment plot)/Number of hatched larvae in a non-treatment plot [Math. 3]

Compound | control efficacy (control rate) (Myzus persicae) | insecticidal efficacy (corrected mortality rate) (Laodelphax striatellus) | insecticidal efficacy (corrected mortality rate) (Plutella xylostella)
CCn1cc(C(F)(F)F)cc2nc(-c3ncc(-n4ccc(C(F)(F)F)n4)cc3S(=O)(=O)CC)c(Cl)c1-2 [Compound 1-35] | A (the control rate is 100%) | A (the corrected mortality rate is 100%) | A (the corrected mortality rate is 100%)
CCCn1cc(C(F)(F)F)cc2nc(-c3ncc(-c4ccc(F)cc4)cc3S(=O)(=O)CC)cc1-2 [Compound 1-30] | A (the control rate is 100%) | A (the corrected mortality rate is 100%) | A (the corrected mortality rate is 100%)
C=CCn1cc(C(F)(F)F)cc2nc(-c3ncc(-c4cccc(C(F)(F)F)c4)cc3S(=O)(=O)CC)c(F)c1-2 [Compound 1-81] | A (the control rate is 100%) | A (the corrected mortality rate is 100%) | A (the corrected mortality rate is 100%)
CCS(=O)(=O)c1cc(-c2ccc(F)cc2)cnc1-c1nc2cc(C(F)(F)F)cn(COC)c-2c1Cl [Compound 1-31] | A (the control rate is 100%) | A (the corrected mortality rate is 100%) | A (the corrected mortality rate is 100%)
CCn1cc(C(F)(F)F)cc2nc(-c3ncc(-c4ccc(F)cc4)cc3S(=O)(=O)CC)cc1-2 [Compound 1-26] | A (the control rate is 100%) | A (the corrected mortality rate is 100%) | A (the corrected mortality rate is 100%)
CCn1cc(C(F)(F)F)cc2nc(-c3ncc(OCC(F)(F)F)cc3S(=O)(=O)CC)c(Cl)c1-2 [Compound 1-11] | A (the control rate is 100%) | A (the corrected mortality rate is 100%) | A (the corrected mortality rate is 100%)
CCS(=O)(=O)c1cc(C2CC2)cnc1-c1nc2cc(C(F)(F)F)cn(CC(F)F)c-2c1F [Compound 1-87] | A (the control rate is 100%) | A (the corrected mortality rate is 100%) | A (the corrected mortality rate is 100%)
CCS(=O)(=O)c1ccc(-n2cncn2)nc1-c1nc2cc(C(F)(F)F)cn(C)c-2c1Cl [Compound 1-37] | A (the control rate is 100%) | A (the corrected mortality rate is 100%) | A (the corrected mortality rate is 100%)
CCS(=O)(=O)c1cc(C2CC2)cnc1-c1nc2cc(C(F)(F)F)cn(CC3CC3)c-2c1F [Compound 1-90] | A (the control rate is 100%) | A (the corrected mortality rate is 100%) | A (the corrected mortality rate is 100%)
CCn1cc(C(F)(F)F)cc2nc(-c3ncc(-c4ccc(F)cc4)cc3S(=O)(=O)CC)c(F)c1-2 [Compound 1-24] | A (the control rate is 100%) | A (the corrected mortality rate is 100%) | A (the corrected mortality rate is 100%)
CCS(=O)(=O)c1cc(-c2cc(F)c(F)c(F)c2)cnc1-c1nc2cc(C(F)(F)F)cn(C)c-2c1Cl [Compound 1-51] | A (the control rate is 100%) | A (the corrected mortality rate is 100%) | A (the corrected mortality rate is 100%)
CCS(=O)(=O)c1cc2ccc(Br)cc2nc1-c1nc2cc(C(F)(F)F)cn(COC)c-2c1Cl [Compound 2-108] | A (the control rate is 100%) | A (the corrected mortality rate is 100%) | A (the corrected mortality rate is 100%)
CCS(=O)(=O)c1cc(-c2cccc(C(F)(F)F)c2)cnc1-c1nc2cc(C(F)(F)F)cn(COC)c-2c1F [Compound 1-82] | A (the control rate is 100%) | A (the corrected mortality rate is 100%) | A (the corrected mortality rate is 100%)
CCCn1cc(C(F)(F)F)cc2nc(-c3ncc(-c4ccc(F)cc4)cc3S(=O)(=O)CC)c(Cl)c1-2 [Compound 1-29] | A (the control rate is 100%) | A (the corrected mortality rate is 100%) | A (the corrected mortality rate is 100%)
CCn1cc(C(F)(F)F)cc2nc(-c3ncc(-c4ccc(F)c(Cl)c4)cc3S(=O)(=O)CC)c(Cl)c1-2 [Compound 1-48] | A (the control rate is 100%) | A (the corrected mortality rate is 100%) | A (the corrected mortality rate is 100%)
CCc1ccc(-c2cnc(-c3nc4cc(C(F)(F)F)cn(C)c-4c3Cl)c(S(=O)(=O)CC)c2)cc1 [Compound 1-76] | A (the control rate is 100%) | A (the corrected mortality rate is 100%) | A (the corrected mortality rate is 100%)
CCn1cc(C(F)(F)F)cc2nc(-c3ncc(-c4cccc(C(F)(F)F)c4)cc3S(=O)(=O)CC)c(C#N)c1-2 [Compound 1-72] | A (the control rate is 100%) | A (the corrected mortality rate is 100%) | A (the corrected mortality rate is 100%)
CCS(=O)(=O)c1cc(C=NOCC(F)(F)F)cnc1-c1nc2cc(C(F)(F)F)cn(CC(F)(F)F)c-2c1Cl [Compound 1-7] | A (the control rate is 100%) | A (the corrected mortality rate is 100%) | A (the corrected mortality rate is 100%)
CCOc1cnc(-c2nc3cc(C(F)(F)F)cn(C)c-3c2Cl)c(S(=O)(=O)CC)c1 [Compound 1-8] | A (the control rate is 100%) | A (the corrected mortality rate is 100%) | A (the corrected mortality rate is 100%)
CCS(=O)(=O)c1cc(-c2cccc(C(F)(F)F)c2)cnc1-c1nc2cc(C(F)(F)F)cn(C)c-2c1F [Compound 1-15] | A (the control rate is 100%) | A (the corrected mortality rate is 100%) | A (the corrected mortality rate is 100%)
CCS(=O)(=O)c1cc(C2CC2)cnc1-c1nc2cc(C(F)(F)F)cn(C)c-2c1Cl [Compound 1-5] | A (the control rate is 100%) | A (the corrected mortality rate is 100%) | A (the corrected mortality rate is 100%)
CCOCn1cc(C(F)(F)F)cc2nc(-c3ncc(-c4cccc(C(F)(F)F)c4)cc3S(=O)(=O)CC)c(F)c1-2 [Compound 1-83] | A (the control rate is 100%) | A (the corrected mortality rate is 100%) | A (the corrected mortality rate is 100%)
CCS(=O)(=O)c1cc(-c2cccc(C(F)(F)F)c2)cnc1-c1nc2cc(C(F)(F)F)cn(CC(F)F)c-2c1Cl [Compound 1-78] | A (the control rate is 100%) | A (the corrected mortality rate is 100%) | A (the corrected mortality rate is 100%)
C=CCn1cc(C(F)(F)F)cc2nc(-c3ncc(C4CC4)cc3S(=O)(=O)CC)c(F)c1-2 [Compound 1-89] | A (the control rate is 100%) | A (the corrected mortality rate is 100%) | A (the corrected mortality rate is 100%)
CCS(=O)(=O)c1cc(-c2ccc(F)cc2)cnc1-c1nc2cc(C(F)(F)F)cn(CSC)c-2c1Cl [Compound 1-32] | A (the control rate is 100%) | A (the corrected mortality rate is 100%) | A (the corrected mortality rate is 100%)
CCn1cc(C(F)(F)F)cc2nc(-c3ncc(-c4cccc(C(F)(F)F)c4)cc3S(=O)(=O)CC)cc1-2 [Compound 1-12] | A (the control rate is 100%) | A (the corrected mortality rate is 100%) | A (the corrected mortality rate is 100%)
